Data reported in patent US20050148495A1, “Methods and materials including for treating acne” (priority 2003, published 2005).
Where two headings read alike, the source gives them in different places. Non-standard residues stand in square brackets, D forms with d. Residues, ends and D or L forms follow the SMILES beside them. d1Nal = N[C@H](Cc1cccc2ccccc12)C(=O)O

System: P. acnes strain (ATCC 6919)
Conditions: for Generation: passage at which the resistant strain emerged

Structure (SMILES) | passages until intermediate-resistant (IR) strains (MIC=64 μg/mL) emerged [passages] | passages until resistant (R) strains (MIC>64 μg/mL) emerged [passages] | Resistance Rate (P. acnes ATCC 6919, listed as Erythromycin IR) | Resistance Rate (P. acnes ATCC 6919, listed as Erythromycin R) | Generation (listed as Erythromycin IR) | Generation (listed as Erythromycin R) | Resistance Rate | resistance rate | resistant colonies after 17 passages | Generation
CC[C@H]1OC(=O)[C@H](C)[C@@H](O[C@H]2C[C@@](C)(OC)[C@@H](O)[C@H](C)O2)[C@H](C)[C@@H](O[C@@H]2O[C@H](C)C[C@H](N(C)C)[C@H]2O)[C@](C)(O)C[C@@H](C)C(=O)[C@H](C)[C@@H](O)[C@]1(C)O [Erythromycin, reference compound] | 11 | 14 | 5 × 10^−8 | 7 × 10^−8 | 11 | 14 | – | – | – | –
CC(C)C[C@@H](NC(=O)[C@H](N)CCCCN)C(=O)N[C@H](Cc1ccccc1)C(=O)N[C@H](CCCNC(=N)N)C(=O)N[C@H](Cc1cccc2ccccc12)C(=O)N[C@H](CCC(N)=O)C(=O)N[C@H](C)C(=O)N[C@H](CCCCN)C(=O)N[C@H](Cc1cccc2ccccc12)C(N)=O [XMP.629, NH2-lys-leu-phe-arg-(3-(1-naphthyl)-ala)-gln-ala-lys-(3-(1-naphthyl)-ala)-CONH2] (H-[dK][dL][dF][dR][d1Nal][dQ][dA][dK][d1Nal]-NH2) | – | – | – | – | – | – | <1.1 × 10^−8 | < 1.2×10^8 | no resistant colonies were formed | ND@17
